Assay results taken from patent US20050214282A1.

Target: T1, Brn3 (Brn3a/Brn3b, endogenous Brn3 activity) (Mus musculus) (UniProt P17208)
T1 sequence (limits assumed): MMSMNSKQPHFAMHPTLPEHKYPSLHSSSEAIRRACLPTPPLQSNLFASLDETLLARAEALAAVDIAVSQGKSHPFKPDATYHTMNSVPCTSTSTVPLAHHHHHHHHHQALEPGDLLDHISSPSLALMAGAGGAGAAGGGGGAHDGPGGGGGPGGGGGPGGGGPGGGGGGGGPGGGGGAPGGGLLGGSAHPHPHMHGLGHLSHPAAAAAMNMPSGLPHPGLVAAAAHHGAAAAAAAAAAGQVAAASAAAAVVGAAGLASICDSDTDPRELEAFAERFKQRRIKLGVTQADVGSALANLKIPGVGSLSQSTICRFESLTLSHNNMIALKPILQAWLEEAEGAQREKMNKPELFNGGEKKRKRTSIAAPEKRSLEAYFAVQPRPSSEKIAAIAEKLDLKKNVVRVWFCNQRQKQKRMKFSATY
Assay: activity in cells
Settings: transfected decoy almost completely abolished RANKL-induced Brn3 binding activity in nuclear extracts; protein in cells; protein details: endogenous, RANKL-stimulated RAW264.7 cells

CACAGCTCATTAACGCGC (double strand) [Brn3 decoy oligonucleotide]
activity on this sequence: active

Construct, isoform or probe ends are uncertain for at least one entry. Tags and fusion partners may be left off the protein sequences shown.
